In publication PMC9056527:
Construct, isoform or probe ends are uncertain for at least one entry. The comparison behind a weaker result is the experiment's own reference, which may not be listed here. At least one verdict rests on a figure or table, not on a statement of the authors.

Tested on: activated protein C (APC)
Assay: BLI
Conditions: elution buffer 10 mM Tris-HCl, 144 mM NaCl, pH 7.4, 5 mM EDTA, bead capture at RT, 30 min, commercial protein, label: 3'-TEG-biotin, single-stranded DNA

Sequence	binding result (binding buffer, 500 nM APC)	binding result (dissociation in 5 mM EDTA (Table S1: ka 6.4e4 1/Ms, kd 2.3e-2 1/s), kd 9x that in binding buffer)	binding result (dissociation in 1 M NaCl, kd 3.4x that in binding buffer)
AAGCAGTGGTAAGTAGGTTGACACATTAGGGCGGGGTACTCCTATCACGTATGGGGGCCTGTGTCTCTTCGAGCAATCCACAC [NB1-83]	binds	–	–
GACACATTAGGGCGGGGTACTCCTATCACGTATGGGGGCCTGTGTC [NB1-46]	binds	–	–
GATTGTTACTGTCACGAGGATATCACGTATGGGGGGCCGGCATGAGGGCCGCGCGTGACAATAGCACATTAGTTCAGATAC [NB2-81]	binds	–	–
GCCTCCTAACTGAGCTGTACTCGACTTATCCCGGATGGGGCTCTTAGGAGGC [HS02-52G]	–	binds more weakly	binds more weakly
TACTGTCACGAGGATATCACGTATGGGGGGCCGGCATGAGGGCCGCGCGTGACAGTA [NB2-57G]	binds	–	–
